According to patent publication US5232924A, “Heterocyclic compound having serotonine 2-receptor antagonistic activity” (Daiichi Pharmaceutical Co., Ltd., priority 1989, dated 1993):

System: Mongrel dogs
Experiment: Acute cardiac infarction model: LDA ligature and reperfusion in dogs
Assay type: in vivo
Details: dog
Protocol: Mongrel dogs (body weight: 8 to 20 kg) under anesthesia were ventilated artificially and underwent a left thracotomy. […] A polyethylene cannula was inserted into the femoral artery, and the blood pressure and heart rate were recorded A cannula was inserted into the […] of a drug and also into the carotid artery from which a blood sample was to be taken. After stabilization period of the test preparation, LDA was ligated with a clamp. After 2 hours from the ligature, the clamp was released for reperfusion. After observation for the following 4 hours, the heart was excised. […] Then, the heart was washed and sliced at 1 cm intervals from the apex in the direction vertical to the longer axis. Each slice at the left ventricle was divided into a part which was in risk of cardiac infarction indicated by Evans' Blue stain (hereinafter referred to as risk area) and a normal area, and each area was weighed. The weight of the left ventricle (the sum of the risk area and the normal area) and that of the risk area of each slice were individually added up to obtain the weight of the whole left ventricle and the total weight of the risk area. Further, of each slice, the area of the risk area which was not stained with Evans' Blue and that of a cardiac infarction area within the risk area which remained white, i.e., which was stained neither in blue with Evans' Blue nor in red with triphenyltetrazolium chloride, were measured to obtain a ratio of cardiac infarction part to the whole left ventricle (infarction size). […] The experiment was conducted for the following groups.

Row | Compound | influence on blood pressure (in words) (hydrochloride 1 mg/kg/hr intravenous drip) | Left Ventricle Weight (1 mg/kg/hr intravenous drip, mean ± S.E.M., control 68 ± 5) [g] | Blood Pressure (1 mg/kg/hr intravenous drip, mean ± S.E.M., control 118 ± 4) [mmHg] | Heart Rate (1 mg/kg/hr intravenous drip, mean ± S.E.M., control 158 ± 8) [beats/min] | Dangerous part Weight (risk area, 1 mg/kg/hr intravenous drip, mean ± S.E.M., control 21 ± 3) [g]
1 | O=C(c1ccc(F)cc1)C1CCN(CCn2c(=O)nc3n(c2=O)CCCC3)CC1 [Example 1, 3-[2-[4-(4-Fluorobenzoyl)piperidin-1-yl]ethyl]-6,7,8,9-tetrahydro-2H-pyrido[1,2-a]-1,3,5-triazine-2,4(3H)-dione] | only a slight influence | – | – | – | –
2 | Cl.O=C(c1ccc(F)cc1)C1CCN(CCn2c(=O)nc3n(c2=O)CCCC3)CC1 [Example 2, 3-[2-[4-(4-Fluorobenzoyl)piperidin-1-yl]ethyl]-6,7,8,9-tetrahydro-2H-pyrido[1,2-a]-1,3,5-triazine-2,4(3H)-dione Hydrochloride] | – | 65 ± 5 | 103 ± 4 | 150 ± 9 | 19 ± 2
